Data taken from PubChem BioAssay AID330 (DTP/NCI, 2004).
The list shows only some results of the screen, not a fair sample: it gathers tests that were run many times, whatever their T/C, doses with no T/C, and many T/C values between a quarter and a half above the control. Further doses and runs are listed elsewhere. T/C: endpoint of the treated group in % of that of the vehicle group. Some doses have a count of surviving animals in place of a T/C: the source holds a T/C of zero for them, seemingly a mark for toxic or unscored doses. Some survivor counts are full or nearly so, which does not show that the dose was tolerated: the source hardly ever lists a survival T/C far under the control, and the zero likely stands for such cases as well. Survivors were counted at the toxicity check, usually on the fifth day, unless a day is given; later deaths do not show. Schedule codes are those of the source, read here as Q, the interval in days (D) or hours (H), X, the number of doses. Where survival is the endpoint, this PubChem deposit counts one and a half times the control or more as active, and values a quarter to a half above the control carry no call in these data; other NCI protocols may use other cut-offs. Some T/C values carry the count of animals alive at the toxicity check (mostly the fifth day); without a count, all were alive then. Some doses were run more than once; the results are listed from low to high. Counts like (3×) say how often a value occurs here.

System: P388 leukemia ip, CD2F1 mice, survival T/C
Experiment: NCI In Vivo Anticancer Drug Screen. Data for tumor model P388 Leukemia (intraperitoneal) in CD2F1 (CDF1) mice
Details: T/C endpoint: median survival time, higher T/C = longer survival
[1] = dose: 240.0 mg/kg/injection, schedule: Q01DX005 (ip), vehicle: saline with Tween-80
[2] = dose: 200.0 mg/kg/injection, schedule: Q01DX005 (ip), vehicle: saline with Tween-80

Compound: COC(=O)c1nc(N)nc(C(=O)OC)c1C(=O)c1ccc(F)cc1
- survivor count (dose: 240.0 mg/kg/injection, schedule: Q01DX005 (ip), vehicle: Klucel (hydroxypropylcellulose) (HPC)): 0 of 6

Compound: O=C1c2ccccc2CC1CS(=O)(=O)CC1Cc2ccccc2C1=O (centres undefined)
- survivor count (dose: 100.0 mg/kg/injection, schedule: Q04DX002 (ip), vehicle: saline): 6 of 6
- survivor count (dose: 200.0 mg/kg/injection, schedule: Q04DX002 (ip), vehicle: saline): 6 of 6

Compound: O=C(NC(=O)c1cccc2ccccc12)NC(=S)c1ccc(Br)cc1
- survivor count (dose: 100.0 mg/kg/injection, schedule: Q01DX001 (ip), vehicle: saline): 5 of 6
- survivor count (dose: 200.0 mg/kg/injection, schedule: Q01DX001 (ip), vehicle: saline): 6 of 6
- survivor count (dose: 400.0 mg/kg/injection, schedule: Q01DX001 (ip), vehicle: saline): 5 of 6

Compound: CSC(SC)(SC)SC
- survivor count (dose: 200.0 mg/kg/injection, schedule: Q01DX009 (ip), vehicle: saline with Tween-80): 2 of 6
- survivor count (dose: 400.0 mg/kg/injection, schedule: Q01DX009 (ip), vehicle: saline with Tween-80): 0 of 6

Compound: CCC1(C)CCC2(C)C(CCC3C4(C)CCCC32OC4=O)C1 (centres undefined)
- survivor count (dose: 50.0 mg/kg/injection, schedule: Q01DX005 (ip), vehicle: Klucel (hydroxypropylcellulose) (HPC)): 2 of 5

Compound: CC1CN1P(=S)(N1CCCC1)N1CC1C (centres undefined)
- T/C (dose: 16.0 mg/kg/injection, schedule: Q01DX009 (ip), vehicle: saline with Tween-80): 136 % of control
- T/C (dose: 32.0 mg/kg/injection, schedule: Q01DX009 (ip), vehicle: saline with Tween-80): 145 % of control
- T/C (dose: 32.0 mg/kg/injection, schedule: Q04DX003 (ip), vehicle: saline with Tween-80): 130 % of control
- T/C (dose: 44.0 mg/kg/injection, schedule: Q01DX009 (ip), vehicle: saline with Tween-80): 131 % of control
- T/C (dose: 64.0 mg/kg/injection, schedule: Q01DX009 (ip), vehicle: saline with Tween-80): 145 % of control
- survivor count (dose: 128.0 mg/kg/injection, schedule: Q01DX009 (ip), vehicle: saline with Tween-80): 6 of 6
- T/C (dose: 128.0 mg/kg/injection, schedule: Q04DX003 (ip), vehicle: saline with Tween-80): 135 % of control
- T/C (dose: 132.0 mg/kg/injection, schedule: Q04DX003 (ip), vehicle: saline with Tween-80): 145 % of control
- survivor count (dose: 256.0 mg/kg/injection, schedule: Q01DX009 (ip), vehicle: saline with Tween-80): 6 of 6
- survivor count (dose: 300.0 mg/kg/injection, schedule: Q04DX003 (ip), vehicle: saline with Tween-80): 6 of 6

Compound: c1ccc2c(c1)C1=NCCN1c1ccccc1-2
- survivor count (dose: 40.0 mg/kg/injection, schedule: Q01DX009 (ip), vehicle: saline): 6 of 6
- survivor count (dose: 60.0 mg/kg/injection, schedule: Q01DX009 (ip), vehicle: saline with Tween-80): 3 of 6
- survivor count (dose: 60.0 mg/kg/injection, schedule: Q01DX009 (ip), vehicle: saline): 2 of 6

Compound: O=C(Nc1ccc(CCO)cc1)Nc1cc(C(F)(F)F)ccc1Cl
- survivor count [1]: 6 of 6

Compound: O=C1NC(=O)C2NC(O)=C(O)NC2N1 (centres undefined)
- survivor count (dose: 50.0 mg/kg/injection, schedule: Q01DX001 (ip), vehicle: saline with Tween-80): 2 of 6
- survivor count (dose: 100.0 mg/kg/injection, schedule: Q01DX001 (ip), vehicle: saline with Tween-80): 1 of 6
- survivor count (dose: 200.0 mg/kg/injection, schedule: Q01DX001 (ip), vehicle: saline with Tween-80): 2 of 6
- survivor count (dose: 400.0 mg/kg/injection, schedule: Q01DX001 (ip), vehicle: saline with Tween-80): 0 of 6

Compound: CCCCN(N=O)C(C)=O
- survivor count (dose: 400.0 mg/kg/injection, schedule: Q04DX002 (ip), vehicle: saline with Tween-80): 5 of 6

Compound: NC(c1ccccc1)c1cccs1 (centres undefined)
- survivor count (dose: 200.0 mg/kg/injection, schedule: Q01DX005 (ip), vehicle: Klucel (hydroxypropylcellulose) (HPC)): 1 of 5

Compound: CS(=O)(=O)CS(=O)(=O)OCCCl
- T/C (dose: 12.5 mg/kg/injection, schedule: Q01DX005 (ip), vehicle: dextrose): 132 % of control
- T/C (dose: 12.5 mg/kg/injection, schedule: Q01DX005 (ip), vehicle: distilled water + Tween-80): 127 % of control
- T/C (dose: 15.0 mg/kg/injection, schedule: Q01DX005 (ip), vehicle: saline): 144 % of control
- T/C (dose: 22.0 mg/kg/injection, schedule: Q01DX005 (ip), vehicle: saline with Tween-80, evaluated on day 30): 160, 161, 168 (2×), 180 % of control
- T/C (dose: 22.0 mg/kg/injection, schedule: Q01DX005 (ip), vehicle: saline with Tween-80, evaluated on day 45): 155 % of control
- T/C (dose: 22.0 mg/kg/injection, schedule: Q01DX005 (ip), vehicle: saline with Tween-80, evaluated on day 60): 151 and 170 % of control
- T/C (dose: 25.0 mg/kg/injection, schedule: Q01DX005 (ip), vehicle: distilled water + Tween-80): 145 % of control
- T/C (dose: 25.0 mg/kg/injection, schedule: Q01DX005 (iv), vehicle: dextrose): 141 % of control
- T/C (dose: 33.0 mg/kg/injection, schedule: Q01DX005 (ip), vehicle: saline with Tween-80, evaluated on day 30): 179, 202, 208, 209, 214 % of control
- T/C (dose: 33.0 mg/kg/injection, schedule: Q01DX005 (ip), vehicle: saline with Tween-80, evaluated on day 45): 186 % of control
- T/C (dose: 33.0 mg/kg/injection, schedule: Q01DX005 (ip), vehicle: saline with Tween-80, evaluated on day 60): 178 [9 of 10 alive], 217, 231, 292 % of control
- T/C (dose: 50.0 mg/kg/injection, schedule: Q01DX005 (ip), vehicle: saline with Tween-80, evaluated on day 30): 230, 233, 250, 272, 280, 285 % of control
- T/C (dose: 50.0 mg/kg/injection, schedule: Q01DX005 (ip), vehicle: saline with Tween-80, evaluated on day 45): 412 % of control
- T/C (dose: 50.0 mg/kg/injection, schedule: Q01DX005 (ip), vehicle: saline with Tween-80, evaluated on day 60): 292, 555, 600, 606 % of control [9 of 10 alive]
- T/C (dose: 75.0 mg/kg/injection, schedule: Q01DX005 (ip), vehicle: saline with Tween-80, evaluated on day 45): 412 % of control
- T/C (dose: 75.0 mg/kg/injection, schedule: Q01DX005 (ip), vehicle: saline with Tween-80, evaluated on day 60): 555, 566, 600, 606 % of control
- survivor count (dose: 75.0 mg/kg/injection, schedule: Q01DX005 (ip), vehicle: water): 2 of 6
- survivor count (dose: 100.0 mg/kg/injection, schedule: Q01DX005 (ip), vehicle: dextrose): 4 of 10
- T/C (dose: 100.0 mg/kg/injection, schedule: Q01DX005 (ip), vehicle: saline with Tween-80, evaluated on day 30): 90 % of control [4 of 6 alive]
- T/C (dose: 100.0 mg/kg/injection, schedule: Q01DX005 (ip), vehicle: saline with Tween-80, evaluated on day 45): 412 % of control
- T/C (dose: 100.0 mg/kg/injection, schedule: Q01DX005 (ip), vehicle: saline with Tween-80, evaluated on day 60): 600 and 606 % of control
- survivor count (dose: 100.0 mg/kg/injection, schedule: Q01DX005 (ip), vehicle: saline with Tween-80): 6 of 10
- survivor count (dose: 125.0 mg/kg/injection, schedule: Q01DX005 (ip), vehicle: dextrose): 0 of 10
- survivor count (dose: 125.0 mg/kg/injection, schedule: Q01DX005 (ip), vehicle: other): 0 of 6
- survivor count (dose: 125.0 mg/kg/injection, schedule: Q01DX005 (ip), vehicle: saline with Tween-80): 3 of 10
- survivor count (dose: 125.0 mg/kg/injection, schedule: Q01DX005 (ip), vehicle: water): 3 of 10
- survivor count (dose: 150.0 mg/kg/injection, schedule: Q01DX005 (ip), vehicle: saline): 0 of 5
- survivor count [2]: 0 of 6
- survivor count (dose: 200.0 mg/kg/injection, schedule: Q01DX005 (ip), vehicle: saline): 1 of 6

Compound: CN1C(=O)N(C)C2(C(=O)N(C)C(=O)N2C)N(C)C1=O
- survivor count (dose: 120.0 mg/kg/injection, schedule: Q01DX005 (ip), vehicle: Klucel (hydroxypropylcellulose) (HPC)): 5 of 6

Compound: O=c1oc2ccc3ccccc3c2cc1-n1nnc2ccccc21
- survivor count [1]: 6 of 6

Compound: C[C](C)(C)[Sn](=[O])[C](C)(C)C
- survivor count (dose: 50.0 mg/kg/injection, schedule: Q01DX009 (ip), vehicle: saline): 0 of 6
- survivor count (dose: 100.0 mg/kg/injection, schedule: Q01DX009 (ip), vehicle: saline): 0 of 6
- survivor count (dose: 200.0 mg/kg/injection, schedule: Q01DX009 (ip), vehicle: saline): 0 of 6

Compound: N#Cc1c(C(=O)NN)cc(-c2ccc3ccccc3c2)[nH]c1=O
- survivor count [2]: 3 of 6
